Here are results for 2 molecules from PubChem BioAssay AID977630 (Broad Institute, 2014).

SMILES strings stand for the structures. Out of some 1,600 compounds screened, fewer than 10 were called active. Not shown: some 48% with an inconclusive outcome. Only a part is listed here, and it is no random draw. Entries with a potency or affinity are not part of this list.

The assay can be described thus: growth inhibition of wild-type GFP E. coli, H38-humanized RFP comparator, dose response, H38 mutant RFP vs wild-type GFP, cherry-pick (AID 977630). Conditions: mixed culture, 24 h; at 50 µM (top of the series).
For `Nc1c(C(=O)NCCN2CCOCC2)c2nc3ccccc3nc2n1Cc1ccccc1`, the activity change, negative = inhibition was inactive: -6.3.
To `O=C1CC(=O)N(Cc2ccccc2)C(=O)N1CCCCCCN1C(=O)CC(=O)N(Cc2ccccc2)C1=O` belongs inactive: 7.35.
